# Source: the supplement of paper PMC3334620
# The full ranking holds about 33,000 sequences; the median of “E-score (-0.5 to 0.5)” is about -0.0014, and the highest 2% start at about 0.25. The list shows a part of the results.
# Target: T1, Cad1 (UniProt P24813)
# T1 sequence: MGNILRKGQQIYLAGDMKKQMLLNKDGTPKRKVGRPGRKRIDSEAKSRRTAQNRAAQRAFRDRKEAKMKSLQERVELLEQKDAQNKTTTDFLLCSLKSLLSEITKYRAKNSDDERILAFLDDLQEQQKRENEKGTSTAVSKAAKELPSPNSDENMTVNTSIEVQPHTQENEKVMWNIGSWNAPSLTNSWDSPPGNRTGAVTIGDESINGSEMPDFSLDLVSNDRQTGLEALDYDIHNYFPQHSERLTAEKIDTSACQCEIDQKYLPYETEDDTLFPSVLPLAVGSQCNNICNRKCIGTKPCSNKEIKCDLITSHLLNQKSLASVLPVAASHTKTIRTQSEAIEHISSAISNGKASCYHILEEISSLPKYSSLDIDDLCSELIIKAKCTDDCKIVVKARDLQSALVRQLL
# Assay: PBM E-score (8-mer binding enrichment) (E-score (-0.5 to 0.5)); higher = stronger / more preferred TF binding
# Conditions: protein concentration: 100 nM; construct: GST-full length
# In short: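 Masliner-normalised scans of fluorescent anti-GST signal were the basis for scoring. That signal came from GST-tagged yeast transcription factors applied at about 100-200 nM to double-stranded universal all-10-mer Agilent arrays on fresh or once-stripped slides. Each ungapped eight-base word, pooled with its reverse complement, received an E-score from the Universal PBM Analysis Suite.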
row,Sequence,PBM E-score
1,AGTTCCAT,0.0876
2,AAACACCT,-0.051
3,TATCGTGA,-0.0114
4,GGTTGTGA,0.0429
5,TTAGACAA,0.117
6,GGCGTCTA,-0.11
7,AAGATGTG,0.0137
8,ACGCCCAC,-0.123
9,GGACTACC,-0.177
10,ACGCACCG,0.0681
11,CGTTGCGA,-0.123
12,TCCAAAGA,-0.0468
13,CTACTGAG,-0.0438
14,CCTCAATA,-0.334
15,ATTACTGA,0.182
16,GCGCTGAA,0.0173
17,ATGACCTG,-0.143
18,AAGAAAAA,0.131
19,GCTGACTA,0.335
20,GACGCAAA,0.119
21,TAATATAA,0.332
22,GAAGCGCC,-0.0668
23,TAGCTTAA,0.146
24,ACTATGCA,0.0796
25,AAGAATCC,-0.117

row,Sequence,PBM E-score
1,CCCGCCCC,0.0573
2,ATCACTAA,0.112
3,CCATGCGA,0.11
4,CTGATCGC,-0.0234
5,AATGAGTG,0.0485
6,ATGCGGTC,0.0756
7,ACATCTCG,0.0707
8,AGGCATTC,-0.195
9,AAGGATGC,-0.0777
10,CCTGCTAG,-0.182
11,AAATATTT,0.228
12,CTGCTGGC,-0.321
13,AATTTTCA,0.0453
14,GACACTCA,-0.0643
15,CCACTCTA,-0.0335
16,ACCGTCCG,-0.109
17,ACTCCACT,-0.0657
18,CTGCCAGA,-0.109
19,ACAGCTTG,0.0747
20,ATATACCG,0.217
21,CGCAGCTA,0.0862
22,AGTACACC,0.00647
23,CTTTCACC,-0.14
24,TAATGCGA,0.0269
25,CCTAAGCC,-0.105

row,Sequence,PBM E-score
1,CCCGAACC,-0.119
2,CAAACCAG,-0.0298
3,CCTGGTAG,-0.209
4,CCTTATAC,-0.0554
5,CAGTCACG,0.0409
6,CCGGTGCG,-0.0877
7,CAGTGGTC,-0.187
8,GGTCCTGA,0.00923
9,GGTAACAC,0.0182
10,CACACCGG,-0.101
11,CACACGCA,-0.132
12,CAGCCCGC,-0.145
13,GAAACCAC,-0.0261
14,GTTACGAA,0.17
15,ACGTGCAA,0.142
16,TGCGCTAA,0.156
17,GCCGTTCC,-0.00956
18,GACTAGAC,-0.126
19,CAAACACG,0.126
20,ACGCTGCC,-0.105
21,ATTGGCAG,-0.0523
22,CAGCAAAG,0.168
23,TATCTTGA,-0.0983
24,AAACAATA,0.251
25,GTCTCGAA,-0.0248

# Some of the entries above, set out differently:
row	Sequence	PBM E-score
20	ACGCTGCC	-0.105
21	ATTGGCAG	-0.0523
22	CAGCAAAG	0.168
23	TATCTTGA	-0.0983

# (cont.)

row,Sequence,PBM E-score
1,AGTCTCTC,-0.232
2,TTGAGAAA,0.1
3,GCGGACCA,0.146
4,ATGTAATA,0.334
5,GCTAATCC,0.0952
6,CACTGGGC,-0.0426
7,CTGTGGAA,-0.0153
8,CAAGATCG,0.025
9,CTGTAAGC,0.125
10,GGTGCATA,0.00671
11,AACGTCGC,-0.00801
12,AAGCCGGA,0.197
13,CTTGAACA,0.0739
14,CAAGAGCC,0.0977
15,ACCTCCCG,-0.177
16,TATCTGCA,0.0927
17,AATCCGGT,0.104
18,CGATGGCG,0.109
19,CAGGGGAC,-0.302
20,CTTCACCC,0.099
21,TACAAGGA,-0.0412
22,GGCTCCTA,-0.241
23,AAATTCTT,-0.103
24,AAATTAAT,0.288
25,CGCCTATA,-0.0376

# Random excerpt: 2 entries already listed.
row,Sequence,PBM E-score
1,CCCGAACC,-0.119
20,GACGCAAA,0.119

# The listing continues:

row,Sequence,PBM E-score
1,GAGCCGAC,-0.279
2,GCCTTAGA,-0.129
3,CCTACACC,-0.143
4,CATATGGA,0.158
5,TGACGCCA,-0.0891
6,CTGAGAAG,-0.0896
7,ATTGCCCA,-0.0728
8,AGTCATCG,0.183
9,TCGTGTAA,0.0331
10,GACGGAGA,0.038
11,ACTAACCC,0.0825
12,CTCAAAAG,-0.0906
13,CGTATGCC,-0.142
14,TACCGCCA,0.0907
15,GACATAGA,-0.239
16,AAAGTGCG,0.00817
17,GTATCCAC,0.101
18,TTAGCAAA,0.0022
19,GCGCCAGA,0.0384
20,TCCATTAA,0.0162
21,GCTTGTAC,0.00405
22,CAATTGGC,0.176
23,ACCGAACA,0.106
24,CCGGAGCA,0.0399
25,ATTCATAG,0.0995

row,Sequence,PBM E-score
1,AGCTTGCG,0.0854
2,AATGTAGA,-0.109
3,AGAGTTAG,-0.0285
4,CTGTATAA,0.112
5,TGTACAAA,0.179
6,AGCTCTGC,-0.313
7,AACAAAAG,0.0576
8,GAGCTAGA,-0.178
9,AGGCGTCC,-0.0711
10,GGCGGAAC,0.0109
11,CATCCAGC,0.0753
12,CCATGGCC,-0.163
13,CTCTGAGA,-0.145
14,GACTCTTA,0.206
15,CCCTGAAC,0.229
16,GCGCAAGA,0.196
17,TACGATCA,0.0567
18,AAGCGAAG,-0.143
19,ATGTCTTG,0.0227
20,AGTGAATG,0.18
21,ACAATCAT,0.141
22,CGTGTATA,-0.0321
23,ATAGCGCA,0.0765
24,CGGGTCAG,0.0694
25,CGCGAAAG,0.0755

row,Sequence,PBM E-score
1,GATGAGAC,0.139
2,CTGCCTTC,-0.147
3,GCTCACCC,-0.17
4,AAGGCCAA,-0.0653
5,AACATCAT,0.118
6,AAGCCCAT,-0.184
7,CCTATTGA,0.0348
8,AGACCTAT,0.111
9,CCAGTTAA,0.147
10,AATTCATA,0.143
11,GTTATCCA,0.0106
12,CCATAGAC,-0.032
13,GACCGTCC,-0.207
14,AACACGTA,0.0625
15,AACGTAGG,-0.174
16,GAGCGCTA,0.212
17,GCCAGGAA,-0.0329
18,AGTGACAT,0.0519
19,CCAAACAG,-0.12
20,GAGTAGAC,-0.0718
21,CAAAGCTC,-0.197
22,GCTATTTA,0.028
23,GAAGCATA,-0.0401
24,ATGACGGA,-0.0767
25,AATCATCA,0.143

row,Sequence,PBM E-score
1,ACAGCAGG,-0.079
2,CATGGAAA,0.161
3,GAGTGGGA,-0.0669
4,CCACGCGG,-0.00784
5,CCCATTAA,-0.117
6,AAAAGACA,0.117
7,ACGCACTG,-0.0467
8,ACCGAGAA,0.0942
9,CTCCTAAC,-0.149
10,CTGTTTAC,0.177
11,ACTCTGCC,-0.103
12,GTTTGCGA,0.184
13,CGCCGAAC,0.0826
14,TCACAAGA,0.0647
15,ATGCGTAC,0.09
16,CGCAGCCA,-0.152
17,CTACCAGA,0.0942
18,ACGACACA,0.0959
19,ATAGCTCG,-0.186
20,GAGTGAGA,-0.0459
21,ATAGCCAT,-0.0486
22,AGTTGGGA,-0.00743
23,CTGATGAA,0.121
24,AACCTGTC,-0.089
25,ATTCGACC,-0.225

row,Sequence,PBM E-score
1,CGCGTTCC,0.132
2,TGTAATAA,0.22
3,GCCTATAC,-0.214
4,AGATTCCT,-0.114
5,CCATTTGC,0.0915
6,ACGAACCA,0.194
7,CAAGTAAG,-0.0761
8,GCATCTGA,-0.22
9,AAACGATT,0.16
10,CAGCGAGG,-0.108
11,TGGAACCA,0.14
12,GGTCACGA,-0.0986
13,CGGCAGAA,-0.0241
14,GCAGTGCC,-0.263
15,ATATGTCA,0.232
16,CAAGGTGA,-0.0619
17,ATAACCGA,-0.0962
18,TATCGACA,0.0374
19,ACAAGTCT,-0.0582
